Laboratory results taken from PubChem BioAssay (NCATS).
Inconclusive results, whose numbers are uncertain, are shown with a selection of clear calls. A potency beside an inconclusive call is a rough fit, not a confirmed value. Activity calls are given as the source filed them. The call rests on the fitted dose curve; in most records, active means well fitted cell-killing curve with a large enough effect; inconclusive means small, poorly fitted or top-dose-only effect, or effect the other way; inactive means no such curve, though single readings can be large or run the other way.

What was measured:
[1] = Quantitative High-Throughput drug screen in 47 multiple myeloma cell lines against the NCATS MIPE library collection: KHM11_PLB cell viability assay (AID 1918962); details: KHM11 myeloma cell viability, CellTiter-Glo ATP luminescence, 48 h; series mostly up to 45.8 µM; further: nearly all actives have a fitted effect of over 35% in size
Procedure, shortened: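 Approved and investigational drugs from MIPE 4.0 were added by pin tool to 500 cells per well. After 48 hours at 37C, ATP-based CellTiter-Glo luminescence indicated remaining viability.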

[2] = Quantitative High-Throughput drug screen in 47 multiple myeloma cell lines against the NCATS MIPE library collection: JIM1_ECACC cell viability assay (AID 1918964); details: JIM1 myeloma viability, CellTiter-Glo ATP luminescence, 48 h; viability (% of DMSO): at 45.8 µM (top of the series)
Procedure, shortened: (§1)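 Steps: seed 500 cells per well; pin-transfer MIPE 4.0 library; incubate 48 h at 37C, 5% CO2, humidified; add CellTiter-Glo, 5 min room temperature; read luminescence.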

[3] = Quantitative High-Throughput drug screen in 47 multiple myeloma cell lines against the NCATS MIPE library collection: INA6_PLB cell viability assay (AID 1918965; further: nearly all actives have a fitted effect of over 55% in size); details: INA6 myeloma viability, CellTiter-Glo ATP luminescence, 48 h; series mostly up to 45.8 µM
Procedure, shortened: (§2)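 Inhibition of cell viability is measured here. Each line was plated at 500 cells per well, treated with MIPE 4.0 drugs, kept 48 hours at 37C, then assayed for ATP content by CellTiter-Glo luminescence.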

[4] = Quantitative High-Throughput drug screen in 47 multiple myeloma cell lines against the NCATS MIPE library collection: JJN3_DSMZ cell viability assay (AID 1918966; further: nearly all actives have a fitted effect of over 50% in size); details: JJN3 myeloma cells viability, CellTiter-Glo ATP, 48 h; series mostly up to 45.8 µM
Procedure, shortened: as §1

[5] = Quantitative High-Throughput drug screen in 47 multiple myeloma cell lines against the NCATS MIPE library collection: KMS27_JCRB cell viability assay (AID 1918970); details: KMS27 myeloma cells, CellTiter-Glo ATP viability, 48 h; viability (% of DMSO): at 45.8 µM (top of the series); further: nearly all actives have a fitted effect of over 30% in size
Procedure, shortened: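 Myeloma cells (500 per well) were exposed to MIPE 4.0 compounds for 48 h at 37 °C, 5% CO2; viability was read as ATP luminescence with CellTiter-Glo, normalized to DMSO-only (100%) and media-only (0%) wells.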

[6] = Quantitative High-Throughput drug screen in 47 multiple myeloma cell lines against the NCATS MIPE library collection: KMS12BM_JCRB cell viability assay (AID 1918971); details: KMS12BM myeloma viability, CellTiter-Glo ATP, 48 h; viability, % of DMSO: at 45.8 µM (top of the series); further: nearly all actives have a fitted effect of over 35% in size
Procedure, shortened: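 qHTS of the MIPE 4.0 collection: 500 myeloma cells/well, 48 h drug exposure at 37C in 5% CO2, then CellTiter-Glo for 5 min at room temperature before luminescence reading.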

[7] = Quantitative High-Throughput drug screen in 47 multiple myeloma cell lines against the NCATS MIPE library collection: KMS12PE_JCRB cell viability assay (AID 1918972); details: KMS12PE myeloma viability, CellTiter-Glo ATP, 48 h; viability: at 45.8 µM (top of the series); further: nearly all actives have a fitted effect of over 30% in size
Procedure, shortened: as §2

[8] = Quantitative High-Throughput drug screen in 47 multiple myeloma cell lines against the NCATS MIPE library collection: Karpas25_ECACC cell viability assay (AID 1918968; further: nearly all actives have a fitted effect of over 35% in size); details: Karpas25 myeloma viability, CellTiter-Glo ATP, 48 h; series mostly up to 45.8 µM
Procedure, shortened: as §1
Potency means the concentration at half of the fitted maximal effect.

SMILES | Potency [1] | Potency [2] | Potency [3] | Potency [4] | Potency [5] | Potency [6] | Potency [7] | Potency [8]
COc1cc2c(cc1OC)CC(=O)N(CCCN(C)C[C@H]1Cc3cc(OC)c(OC)cc31)CC2 | inconclusive: 33200 nM [cytotoxic, single point] | inconclusive: 23500 nM [cytotoxic, partial curve, poor fit] | inactive | inconclusive: 6.6 nM [cytotoxic, full curve, poor fit] | inconclusive: 29600 nM [cytotoxic, partial curve] | inconclusive: 14800 nM [cytotoxic, partial curve, poor fit] | active: 20900 nM | 
CC(Oc1ccc(O)cc1)(P(=O)(O)O)P(=O)(O)O | inactive | inactive | inconclusive: 20900 nM [cytotoxic, partial curve, poor fit] | inconclusive: 33200 nM [cytotoxic, single point] |  | inconclusive: 3.7 nM [cytotoxic, full curve, poor fit] |  | inconclusive: 37200 nM [cytotoxic, single point]
COc1cc(CNC(=O)CCCCC=CC(C)C)ccc1O | inactive | inconclusive: 33200 nM [cytotoxic, single point] | inconclusive: 23500 nM [cytotoxic, single point] | inconclusive: 3.7 nM [rising, full curve, poor fit] | inconclusive: 20900 nM [cytotoxic, single point] | inactive |  | 
CC(c1cc2ccccc2s1)N(O)C(N)=O (stereo not drawn) | inconclusive: 13200 nM [cytotoxic, single point] | inactive | inactive | inconclusive: 1.3 nM [cytotoxic, full curve, poor fit] | inactive | inconclusive: 2.3 nM [cytotoxic, full curve, poor fit] | inactive | inactive
C[C@H]1COc2c(N3CCN(C)CC3)c(F)cc3c(=O)c(C(=O)O)cn1c23 | inconclusive: 1870 nM [rising, partial curve, poor fit] | inactive | inactive | inconclusive: 7.4 nM [rising, full curve, poor fit] | inconclusive: 1480 nM [rising, partial curve, poor fit] | inactive | inconclusive: 1 nM | 
Nc1ccn(C2CO[C@H](CO)O2)c(=O)n1 (stereo partly drawn) | inconclusive: 1320 nM [cytotoxic, full curve, poor fit] | inconclusive: 209 nM [rising, full curve, poor fit] | inconclusive: 9.3 nM [cytotoxic, full curve, poor fit] | inconclusive: 5900 nM [cytotoxic, partial curve, poor fit] |  | active: 833 nM | inconclusive: 5.9 nM [cytotoxic, full curve, poor fit] | inactive
O=c1[nH]cnc2[nH]ncc12 | inconclusive: 93.5 nM [rising, full curve, poor fit] | inactive | inconclusive: 332 nM [cytotoxic, full curve, poor fit] | inconclusive: 20.9 nM [rising, full curve, poor fit] | inactive | inconclusive: 2.6 nM [rising, full curve, poor fit] | inconclusive: 20900 nM [cytotoxic, partial curve, poor fit] | 
COc1cc2c(cc1OC)[C@@H]1Cc3ccc(OC)c(OC)c3CN1CC2 | inconclusive: 10.5 nM [cytotoxic, full curve, poor fit] | inconclusive: 1.7 nM [cytotoxic, full curve, poor fit] | inconclusive: 29600 nM [cytotoxic, single point] | active: 20900 nM | inactive |  |  | 
COCCCOc1ccnc(CS(=O)c2nc3ccccc3[nH]2)c1C (stereo not drawn) | inactive | inconclusive: 4.2 nM [rising, full curve, poor fit] | inactive | inconclusive: 1.2 nM [rising, full curve, poor fit] |  | inactive |  | inconclusive: 1.9 nM [rising, full curve, poor fit]
CCN(C)C(=O)Oc1cccc([C@H](C)N(C)C)c1 | inconclusive: 26.4 nM [rising, full curve, poor fit] | inactive | inactive | inconclusive: 2960 nM [cytotoxic, full curve, poor fit] | inconclusive: 6620 nM [cytotoxic, partial curve, poor fit] | inconclusive: 6620 nM [cytotoxic, partial curve, poor fit] |  | inactive
CN1C(C(=O)Nc2ccccn2)=C(O)c2sccc2S1(=O)=O | inactive | inactive | inconclusive: 148 nM [rising, full curve, poor fit] | inconclusive: 2960 nM [cytotoxic, partial curve, poor fit] | inconclusive: 23.5 nM [cytotoxic, full curve, poor fit] | inconclusive: 10500 nM [cytotoxic, full curve, poor fit] | inactive | inactive
COc1cc2ncn(-c3cc(OCc4ccccc4S(C)(=O)=O)c(C#N)s3)c2cc1OC | inactive | inconclusive: 469 nM [cytotoxic, full curve, poor fit] | inconclusive: 1660 nM [cytotoxic, full curve, poor fit] | inconclusive: 33.2 nM [cytotoxic, full curve, poor fit] |  | inconclusive: 2960 nM [cytotoxic, partial curve, poor fit] | inactive | inconclusive: 13200 nM [cytotoxic, partial curve, poor fit]
O=C(O)C(=O)Nc1cccc(C2=NN=N[N]2)c1 | inconclusive: 6.6 nM [rising, full curve, poor fit] | inconclusive: 11800 nM [rising, partial curve, poor fit] | inactive | inconclusive: 1660 nM [rising, full curve, poor fit] |  | inactive |  | inactive
CN1CCN(c2ncc(-c3cc(Cl)cc(Cl)c3Cl)c(N)n2)CC1 | inconclusive: 148 nM [rising, full curve, poor fit] | active: 23500 nM | active: 13200 nM | inconclusive: 2.6 nM [rising, full curve, poor fit] | inconclusive: 7430 nM [cytotoxic, partial curve] | inactive | inconclusive: 37200 nM [cytotoxic, single point] | inconclusive: 33200 nM [cytotoxic, single point]
O=C(O)CCNC(=O)c1ccc(N=Nc2ccc(O)c(C(=O)O)c2)cc1 | inconclusive: 1.2 nM [rising, full curve, poor fit] | inconclusive: 23.5 nM [cytotoxic, full curve, poor fit] | inactive | inconclusive: 7.4 nM [cytotoxic, full curve, poor fit] |  | inconclusive: 332 nM [cytotoxic, partial curve, poor fit] | inactive | active: 3.7 nM
Clc1cccc(-n2nnnc2NCc2ccccc2Oc2ccccn2)c1Cl | inactive | inconclusive: 3720 nM [cytotoxic, full curve, poor fit] | inactive | inconclusive: 1.7 nM [rising, full curve, poor fit] |  | inconclusive: 1 nM | inconclusive: 20900 nM [cytotoxic, partial curve] | inconclusive: 23500 nM [cytotoxic, partial curve]
COc1ccc2nc(S(=O)Cc3ncc(C)c(OC)c3C)[nH]c2c1 (stereo not drawn) | inconclusive: 2960 nM [rising, full curve, poor fit] | inconclusive: 1.2 nM [rising, full curve, poor fit] | inconclusive: 37200 nM [cytotoxic, single point] | inconclusive: 14.8 nM [rising, full curve, poor fit] | inconclusive: 37200 nM [cytotoxic, single point] | inactive | inconclusive: 3 nM [rising, full curve, poor fit] | 
O=C(O)c1cn(C2CC2)c2cc(N3CCNCC3)c(F)cc2c1=O | inconclusive: 1.9 nM [rising, full curve, poor fit] | inactive | inconclusive: 66.2 nM [rising, full curve, poor fit] | inactive | inconclusive: 10.5 nM [rising, full curve, poor fit] | inconclusive: 418 nM [rising, full curve, poor fit] |  | 
CN1CCN(c2c(F)cc3c(=O)c(C(=O)O)cn(CCF)c3c2F)CC1 | inconclusive: 29600 nM [rising, single point] | inconclusive: 16.6 nM [rising, full curve, poor fit] | inconclusive: 37200 nM [cytotoxic, single point] | inconclusive: 5900 nM [rising, partial curve, poor fit] |  | inconclusive: 2.1 nM [rising, full curve, poor fit] |  | inactive
CC=C1C2C=C(C)CC1(N)c1ccc(=O)[nH]c1C2 (stereo not drawn) | inactive | inconclusive: 3720 nM [cytotoxic, partial curve, poor fit] | inconclusive: 332 nM [cytotoxic, full curve, poor fit] | inactive | inactive | inconclusive: 3 nM [cytotoxic, full curve, poor fit] | inactive | inactive
CCCCC(F)(F)[C@@]1(O)CC[C@H]2[C@H](CC(=O)[C@@H]2CCCCCCC(=O)O)O1 | inactive | inconclusive: 209 nM [cytotoxic, full curve, poor fit] | inactive | inconclusive: 10500 nM [cytotoxic, partial curve, poor fit] | inconclusive: 46.9 nM [cytotoxic, full curve, poor fit] | inconclusive: 10500 nM [cytotoxic, partial curve, poor fit] |  | inconclusive: 7.4 nM [cytotoxic, full curve, poor fit]

Entries of single compounds from above:
O=C(O)C(=O)Nc1cccc(C2=NN=N[N]2)c1 in the list: Potency [1]: inconclusive: 6.6 nM [rising, full curve, poor fit]; Potency [2]: inconclusive: 11800 nM [rising, partial curve, poor fit]; Potency [3]: inactive; Potency [4]: inconclusive: 1660 nM [rising, full curve, poor fit]; Potency [6]: inactive; Potency [8]: inactive
COc1cc2c(cc1OC)CC(=O)N(CCCN(C)C[C@H]1Cc3cc(OC)c(OC)cc31)CC2 in the list: Potency [1]: inconclusive: 33200 nM [cytotoxic, single point]; Potency [2]: inconclusive: 23500 nM [cytotoxic, partial curve, poor fit]; Potency [3]: inactive; Potency [4]: inconclusive: 6.6 nM [cytotoxic, full curve, poor fit]; Potency [5]: inconclusive: 29600 nM [cytotoxic, partial curve]; Potency [6]: inconclusive: 14800 nM [cytotoxic, partial curve, poor fit]; Potency [7]: active: 20900 nM
